Laboratory results: PubChem BioAssay AID1259425 (University of Nebraska Medical Center, 2018)
Shown is an unselected part of about 14,000 reagents tested. The numbers tell different reagents against one gene apart. Not stated in the record: the time to read-out.

Purpose: 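Compare each knockdown with KSR1 silencing using changes in marker transcripts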 (primary screen)
Cell system: HCT116 human colon cancer cells
Knock-down reagent: siRNA pool against human genes, 50 nM siRNA
Read-out: 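mRNA of six signature genes measured together by branched-DNA assay after 50 nM siRNA pool, blank removed, divided by geometric mean of two housekeeping genes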
Direction: BNIP3L mRNA: higher = more BNIP3L transcript after knockdown; NDRG1 mRNA: higher = more NDRG1 transcript after knockdown; BNIP3 mRNA: higher = more BNIP3 transcript after knockdown; ALDOC mRNA: higher = more ALDOC transcript after knockdown; ACSL5 mRNA: higher = more ACSL5 transcript after knockdown

| Target gene | reagent | BNIP3L mRNA, set 1 | NDRG1 mRNA, set 1 | BNIP3 mRNA, set 1 | ALDOC mRNA, set 1 | ACSL5 mRNA, set 1 |
| --- | --- | --- | --- | --- | --- | --- |
| TAGLN | 1 | 0.0996 | 0.459 | 0.303 | 0.0286 | 0.103 |
| SNRNP40 | 1 | 0.0713 | 0.163 | 0.309 | 0.0143 | 0.187 |
| SUMO2 | 1 | 0.126 | 0.198 | 0.293 | 0.036 | 0.124 |
| ELAVL1 | 1 | 0.0626 | 0.134 | 0.27 | 0.00712 | 0.178 |
| PNMA1 | 1 | 0.101 | 0.109 | 0.256 | 0.0166 | 0.163 |
| OR3A3 | 1 | 0.145 | 0.294 | 0.363 | 0.0432 | 0.176 |
| ICOSLG | 1 | 0.128 | 0.636 | 0.558 | 0.00729 | 0.137 |
| NUP54 | 1 | 0.0886 | 0.18 | 0.326 | 0.028 | 0.0648 |
| BTBD1 | 1 | 0.052 | 0.0782 | 0.204 | 0.0115 | 0.135 |
| WASF2 | 1 | 0.0731 | 0.0816 | 0.278 | 0.0202 | 0.146 |
| DEFA4 | 1 | 0.265 | 0.314 | 0.38 | 0.0208 | 0.129 |
| UQCRH | 1 | 0.155 | 0.461 | 0.125 | 0.0274 | 0.202 |

An excerpt from above, showing only “ACSL5 mRNA, set 1”.
PNMA1 = 0.163
OR3A3 = 0.176

Continued.
| Target gene | reagent | BNIP3L mRNA, set 1 | NDRG1 mRNA, set 1 | BNIP3 mRNA, set 1 | ALDOC mRNA, set 1 | ACSL5 mRNA, set 1 |
| --- | --- | --- | --- | --- | --- | --- |
| ADA2 | 1 | 0.27 | 0.405 | 0.462 | 0.0604 | 0.493 |
| NELL2 | 1 | 0.0785 | 0.248 | 0.381 | 0.0163 | 0.224 |
| CYB5B | 1 | 0.137 | 0.346 | 0.393 | 0.0524 | 0.409 |
| MAU2 | 1 | 0.101 | 0.448 | 0.352 | 0.0205 | 0.0672 |
| RIOK2 | 1 | 0.15 | 0.168 | 0.313 | 0.0134 | 0.223 |
| VAMP3 | 1 | 0.102 | 0.245 | 0.241 | 0.0253 | 0.0899 |
| GAGE6 | 1 | 0.0978 | 0.112 | 0.247 | 0.0449 | 0.155 |
| PPOX | 1 | 0.11 | 0.122 | 0.322 | 0.0066 | 0.195 |
| RND2 | 1 | 0.0543 | 0.26 | 0.255 | 0.03 | 0.119 |
| LHX9 | 1 | 0.196 | 0.146 | 0.354 | 0.024 | 0.301 |
| ROGDI | 1 | 0.0636 | 0.513 | 0.263 | 0.0145 | 0.211 |
| HELZ | 1 | 0.0897 | 0.741 | 0.272 | 0.0219 | 0.382 |
| ICA1L | 1 | 0.133 | 0.206 | 0.271 | 0.0347 | 0.0999 |
| ICA1L | 2 | 0.188 | 0.106 | 0.34 | 0.0422 | 0.144 |
| DKK3 | 1 | 0.0699 | 0.398 | 0.246 | 0.0444 | 0.144 |
| TRPM1 | 1 | 0.093 | 0.109 | 0.157 | 0.0106 | 0.138 |
| ELOVL7 | 1 | 0.102 | 0.15 | 0.25 | 0.039 | 0.222 |
| PDCD6IP | 1 | 0.036 | 0.129 | 0.199 | 0.0192 | 0.142 |
| GRAMD1B | 1 | 0.152 | 0.266 | 0.247 | 0.067 | 0.205 |
| MOK | 1 | 0.0637 | 0.188 | 0.314 | 0.0127 | 0.432 |
| GABRD | 1 | 0.134 | 0.212 | 0.333 | 0.0132 | 0.103 |
| REEP1 | 1 | 0.175 | 0.386 | 0.358 | 0.0266 | 0.234 |
